In all, about 33,000 sequences were measured (“E-score (-0.5 to 0.5)”: median about -0.0034, highest 2% from about 0.25 on). The list shows a part of the results.
biological target: T1, Yap3 (UniProt P38749); experiment: PBM E-score (8-mer binding enrichment) (E-score (-0.5 to 0.5)); higher = stronger / more preferred TF binding; conditions: protein concentration: 100 nM; construct: GST-full length
T1 sequence: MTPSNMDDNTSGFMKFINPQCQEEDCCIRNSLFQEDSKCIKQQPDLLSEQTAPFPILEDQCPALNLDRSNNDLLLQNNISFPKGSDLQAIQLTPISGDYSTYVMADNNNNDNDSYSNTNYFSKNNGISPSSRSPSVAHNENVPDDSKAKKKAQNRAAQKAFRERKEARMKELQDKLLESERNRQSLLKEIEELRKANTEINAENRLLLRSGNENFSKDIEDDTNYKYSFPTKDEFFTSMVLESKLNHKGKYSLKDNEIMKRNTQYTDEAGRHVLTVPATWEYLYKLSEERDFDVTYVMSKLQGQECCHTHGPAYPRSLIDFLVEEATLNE
Procedure, shortened: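 Yeast transcription factors carrying a GST tag, as full-length proteins or DNA-binding domains, were produced by PURExpress in vitro transcription/translation. About 100-200 nM protein was applied to universal all-10-mer Agilent arrays, double-stranded by primer extension on fresh or once-stripped slides. Bound protein was detected with fluorescent anti-GST, and scans were normalised with masliner. The Universal PBM Analysis Suite gave each ungapped eight-base word, pooled with its reverse complement, an E-score, a modified Wilcoxon-Mann-Whitney statistic.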

| Sequence | PBM E-score |
| --- | --- |
| CGCTACTC | -0.112 |
| ACTTCGAT | 0.166 |
| AAGGGGTG | -0.233 |
| GACAATCA | 0.0761 |
| CTTAAACC | -0.0643 |
| GGCCCACA | -0.119 |
| GGACCACC | -0.11 |
| CACGTGGC | -0.2 |
| CCTGTTTA | 0.121 |
| CGAGTAAG | 0.121 |
| CCTCGCGA | 0.00623 |
| AGGCGGTC | -0.233 |
| CGATGAAC | -0.152 |
| ACAAGTGG | -0.0491 |
| ATCCGTAC | 0.18 |
| ACATGCAA | 0.0301 |
| CTAACGGA | 0.249 |
| GGAACATA | 0.00432 |
| AACAAATT | 0.237 |
| CTTTCTTC | -0.00069 |
| CGATGTAG | -0.0655 |
| AGGATACG | -0.156 |
| AGAAATAC | 0.00533 |
| GCGATGAA | 0.0736 |
| CTTCAAAC | -0.0241 |

| Sequence | PBM E-score |
| --- | --- |
| AGCTAGTA | 0.0754 |
| GAGGAGGC | -0.226 |
| AACACGGT | 0.0201 |
| CTGAAACA | -0.0435 |
| ATGGTAGA | 0.0392 |
| AGTATTTA | 0.16 |
| AGCTAGCT | 0.038 |
| CGCTTACC | 0.0145 |
| GCCACATA | 0.105 |
| ACAATGTG | 0.114 |
| GTTTGAAA | 0.176 |
| ACATGCGT | 0.00122 |
| CCTTAACG | -0.0199 |
| AAATGCGG | 0.00294 |
| CACCACCA | -0.0998 |
| AGATCTTA | 0.0758 |
| GCGCATTA | 0.0888 |
| CCGACGGC | -0.0688 |
| CGTGATGC | 0.0658 |
| CGGGATGC | -0.2 |
| GTTACTCA | 0.161 |
| CTTGCGCA | 0.148 |
| GATGTGTA | 0.067 |
| CCATTGGA | -0.134 |
| CGACGGAC | 0.0195 |

| Sequence | PBM E-score |
| --- | --- |
| AAAATGAA | 0.208 |
| CTTTGCGC | 0.0871 |
| CATTTCGC | 0.0891 |
| ATCAAGCG | -0.032 |
| AAGATTTC | 0.163 |
| ACCATTTG | -0.0787 |
| ATCATCTG | -0.0395 |
| GAACTAAA | 0.0567 |
| AGCTTGAA | -0.0302 |
| TCAGACCA | 0.0975 |
| GCGATTAA | 0.216 |
| CAGTCCCG | -0.356 |
| CGTGTCAA | -0.212 |
| CGTGCTAG | -0.177 |
| GAGGCGTA | 0.035 |
| AACTATAT | 0.309 |
| AGTAGCTG | -0.0134 |
| CGCGACAC | 0.111 |
| GGACAGAC | -0.191 |
| ATAGGCGG | 0.109 |
| GTTTGGAA | 0.0622 |
| CGCTTCCA | -0.0828 |
| ATTTTACC | 0.297 |
| ACTTCTCA | 0.00447 |
| GACAGTGC | -0.0249 |

| Sequence | PBM E-score |
| --- | --- |
| CGTGAGCA | -0.173 |
| CAATACCG | -0.0587 |
| CGAGGAAG | -0.122 |
| GAAGGATC | -0.144 |
| ACCACGTA | -0.19 |
| AGTGCGTA | -0.0734 |
| CCTTATGA | 0.113 |
| CAAGTTAC | 0.108 |
| GGAGCGCA | -0.261 |
| CCTTTCAG | -0.198 |
| AATGTCTA | 0.0499 |
| TTGCAAAA | 0.237 |
| GGAGATCC | -0.211 |
| CAAGCAAG | -0.169 |
| AATGTTAA | 0.0558 |
| ACTGCGAT | 0.0212 |
| AGACCGCA | -0.099 |
| CACCGACC | -0.105 |
| AGAGTTCA | -0.155 |
| CATTTGGA | -0.0842 |
| CTAAGTTC | -0.18 |
| AACATATA | 0.23 |
| AGGGCTGG | -0.175 |
| GACCCGTC | -0.326 |
| CGGGGGGA | -0.42 |

Already shown: an excerpt of the list.

| Sequence | PBM E-score |
| --- | --- |
| ACTGCGAT | 0.0212 |
| AGACCGCA | -0.099 |
| CACCGACC | -0.105 |
| AGAGTTCA | -0.155 |

Retrieved one by one from above, 2 records:

| Sequence | PBM E-score |
| --- | --- |
| CGTGAGCA | -0.173 |
| ACATGCGT | 0.00122 |

(further entries)

| Sequence | PBM E-score |
| --- | --- |
| CATTTCCG | 0.228 |
| ACCCCACA | -0.00151 |
| AAGGGTGC | 0.00681 |
| TAGTCTCA | -0.034 |
| CTCGGAGC | -0.147 |
| AACCTACT | 0.16 |
| CAAAAAGA | 0.0468 |
| CGTTAGGC | -0.174 |
| CTACGACA | 0.0833 |
| CCCGCCAG | -0.0733 |
| ACCCAGAG | 0.0143 |
| CCTGGCAA | 0.012 |
| GGCCTCGA | -0.0664 |
| AGCTCCAA | 0.124 |
| GCTTCCCC | -0.346 |
| ATCAACCC | 0.0349 |
| AGGCGCGA | -0.00335 |
| TCAAGGGA | -0.103 |
| ATTACCGC | 0.183 |
| GTCACTAA | 0.195 |
| AATTCACA | 0.238 |
| GACGGGGC | -0.148 |
| CAACGTTA | 0.204 |
| CTACACAC | 0.072 |
| CCCGTAGC | -0.142 |

| Sequence | PBM E-score |
| --- | --- |
| AATAAGCG | 0.0778 |
| CGTGCAGC | -0.165 |
| ATAATGGA | 0.188 |
| GGCAAGTA | 0.0706 |
| AATAAAAC | 0.315 |
| GTCAGAAA | -0.0404 |
| ACACAACC | 0.144 |
| CATGATTC | 0.0254 |
| ATACTATG | 0.162 |
| ACATGCTG | -0.0157 |
| GGGGGCCA | -0.363 |
| ACCCATTC | 0.0556 |
| CCTAGGCG | -0.136 |
| TTACTAAA | 0.401 |
| GTATTCCA | 0.122 |
| CGAAGTGC | 0.0539 |
| CATGTCCG | -0.255 |
| AGCGCTAG | 0.0967 |
| CTACCTCA | -0.0133 |
| ACGCAAGG | 0.0117 |
| AGACCGGG | -0.146 |
| CTCGAATC | -0.101 |
| CCCGGGCA | -0.358 |
| CACACGCG | 0.0812 |
| CCTTCAGA | -0.195 |

| Sequence | PBM E-score |
| --- | --- |
| CCGGACGA | -0.0258 |
| ATAACAGA | 0.154 |
| AACAAAAC | 0.239 |
| ACCGACTG | -0.0519 |
| TACCGGCA | 0.015 |
| CACCGGTC | -0.344 |
| AGGGTTGA | -0.0924 |
| AAATCCTT | -0.0476 |
| CAGTAGGA | -0.183 |
| GAGTCCCA | -0.0964 |
| ATTACGAC | 0.269 |
| AAACTTAA | 0.23 |
| CCCGTTCC | -0.126 |
| AGTTAGGG | 0.0307 |
| AGAAGTCT | -0.101 |
| ATGTTAGG | 0.0887 |
| AATCTTCC | -0.0614 |
| GAGATTCC | 0.0624 |
| ACACAAGA | 0.1 |
| AGAACACC | 0.00243 |
| CACAAACA | 0.0814 |
| CTACATTA | 0.11 |

Some of the entries above in a different format:
Sequence,PBM E-score
ATGTTAGG,0.0887
AATCTTCC,-0.0614
GAGATTCC,0.0624
ACACAAGA,0.1
AGAACACC,0.00243

Reference: the supplement of paper PMC3334620
